Experimental data as given in paper PMC3419646.
These are yes or no findings as the source states them, for the method shown. In cells and extracts the contact can be indirect. Some results given as binding are weak or reduced against the parent protein; the word gives no strength.

By UniProt entry, the sequences of proteins in these tests, tags left out. Residues count along the entry.
UniProt P05067, residues 672-713: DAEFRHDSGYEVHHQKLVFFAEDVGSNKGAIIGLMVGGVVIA
UniProt P07825: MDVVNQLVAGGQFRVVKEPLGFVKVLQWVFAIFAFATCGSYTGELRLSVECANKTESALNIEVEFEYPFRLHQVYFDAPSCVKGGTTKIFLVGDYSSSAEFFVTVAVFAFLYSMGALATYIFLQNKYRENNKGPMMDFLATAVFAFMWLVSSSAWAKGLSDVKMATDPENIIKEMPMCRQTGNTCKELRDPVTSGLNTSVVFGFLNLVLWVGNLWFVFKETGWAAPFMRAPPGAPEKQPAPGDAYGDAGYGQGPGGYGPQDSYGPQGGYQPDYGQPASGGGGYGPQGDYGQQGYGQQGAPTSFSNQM

Molecular target: amyloid-β peptide (Aβ42) (UniProt P05067)
Test: pull-down; affinity column of Aβ42; hippocampal extracts passed over it; eluted fraction probed by western blot with antibodies against synaptic proteins; only the target purified

- binding: binds
Substance: Synaptophysin (from UniProt P07825 1-307)
